Test results reported in the supplement of paper PMC6078165.
Values are relative to the signal before dosing, not to a vehicle control; the signal also falls without drug.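 Fibroblast labels denote human fibroblasts, mainly primary ones from uterus (C12385, HUF), lung (H6013), bone (Hs27A), adrenal (HADF) and skin (WS1), plus mammary HMF and breast cancer-associated Hs343T. Cancer cells are basal-like or mesenchymal-like triple-negative breast cancer lines. A hit is a response shift exceeding 3x replicate standard deviation. The tissue of the other fibroblasts is not given here.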

Tested on: MDAMB468
Test: relative JC-1 red fluorescence (viability) vs pre-drug, coculture with fibroblast (fraction); higher = more viable cancer cells
Conditions: 10 µM
Description: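 JC-1 labelled TNBC cells cocultured 1:1 (1,500 cells each) with CellTrace Violet stained primary or stromal fibroblasts in 384-well plates in FluoroBrite medium, treated with one of 42 anticancer drugs at 0.1, 1, 10 or 100 uM. JC-1 red fluorescence (mitochondrial integrity in cancer cells only) was read by plate reader every 8 h for 72 h. Values are normalised to each well's pre-drug value. The stock of one drug was tenfold lower, so its dose labels may be too high.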

CC(=O)O[C@@]12CO[C@@H]1C[C@H](O)[C@@]1(C)C(=O)[C@H](O)C3=C(C)[C@@H](OC(=O)[C@H](O)[C@@H](NC(=O)OC(C)(C)C)c4ccccc4)C[C@@](O)([C@@H](OC(=O)c4ccccc4)[C@H]21)C3(C)C [Docetaxel]
relative JC-1 red fluorescence
Conditions	8 h	16 h	24 h	32 h	40 h	48 h	56 h	64 h	72 h
coculture fibroblast: C12385	0.8651	0.857	0.838	0.8183	0.7767	0.781	0.725	0.71	0.699
coculture fibroblast: H6013	0.881	0.902	0.874	0.8567	0.81185	0.8181	0.7731	0.765	0.716
coculture fibroblast: H6019	0.8582	0.844	0.822	0.81	0.804	0.821	0.788	0.79	0.797
coculture fibroblast: H6076	0.884	0.926	0.9012	0.9	0.839	0.84	0.813	0.804	0.867
coculture fibroblast: H6231	0.8322	0.958	0.905	0.881	0.839	0.806	0.744	0.71	0.6766
coculture fibroblast: HADF	0.864	0.8565	0.8007	0.797	0.735	0.735	0.682	0.664	0.626
coculture fibroblast: HCFa	0.861	0.8557	0.8048	0.794	0.725	0.717	0.664	0.635	0.596
coculture fibroblast: HCPF	0.8618	0.964	0.9041	0.8968	0.8302	0.794	0.734	0.725	0.7064
coculture fibroblast: HHSteC	0.9105	0.911	0.881	0.8529	0.8014	0.798	0.744	0.721	0.671
coculture fibroblast: HMF	0.806	0.833	0.905	0.89	0.83	0.822	0.74	0.71	0.676
coculture fibroblast: HPFa	0.9026	0.9024	0.875	0.824	0.79	0.787	0.729	0.722	0.659
coculture fibroblast: HUF	0.9143	0.844	0.8058	0.748	0.71	0.685	0.647	0.628	0.623
coculture fibroblast: Hs5	0.951	0.871	0.96	0.939	0.867	0.838	0.797	0.763	0.793
coculture fibroblast: Hs27A	0.865	0.88	0.812	0.814	0.759	0.763	0.726	0.71	0.675
coculture fibroblast: Hs343T	0.853	0.9497	0.878	0.864	0.7776	0.7427	0.681	0.656	0.626
coculture fibroblast: WS1	0.865	0.818	0.7827	0.72314	0.6465	0.615	0.575	0.5438	0.5273
